Test system: collagen-induced arthritis
Assay: Collagen-induced arthritis in female Lewis rats
Assay type: in vivo
Conditions: 3 mg/kg QD PO, vs vehicle control rats
Description: Animals were anesthetized with isoflurane and given intradermal injections of 400 μl (2×200 μl) of Porcine Type II collagen in Freund's incomplete adjuvant spread equally over two sites on the back on study days 0. On day 7, a boost injection was given; intradermal injections of 100 μl of Porcine Type II collagen in Freund's incomplete adjuvant. Collagen was prepared by making a 2 mg/ml solution in 0.01 N Acetic acid. Equal volumes of collagen and Freund's incomplete adjuvant were emulsified by hand mixing with the syringes partially submerged in ice water for 10 minutes, at which point a bead of this material will hold its form when placed in water. On study day 6, the animals were randomized by body weight into treatment groups and dosing was initiated. […] Efficacy evaluation was based on animal body weights, ankle caliper measurements, and final hind paw weights. Terminal serum was analyzed for anti-type II collagen antibody (IgG) concentrations. The rats were weighed on day 6 for randomization, on day 9, and daily on days 11 through 17. Caliper measurements of right and left ankle diameters were taken on study days 9 (baseline) and 11 through 17. Ankle caliper measurements were made with a digital micrometer ([…]; Fowler & NSK). Baseline measurements were taken using one ankle with values rounded to one thousandth of an inch. […]

## CCS(=O)(=O)N1CC(CC#N)(n2cc(-c3ncnc4[nH]ccc34)cn2)C1 [baricitinib]
  inhibition of body weight loss: 42%

Reference: patent US20200377510A1, “DERIVATIVES OF PIPERLONGUMINE AND USES THEREOF” (Auransa Inc., priority 2019, published 2020)
